Source: publication PMC4379049
No constants are given. Whether binding was seen depends on the method and setting. For some of these results: In cells and extracts the contact can be indirect. Some binding calls cover weakened binding; strength is not graded here. For some of these results: Tags and fused reporters may be left off the sequences shown.

Key:
[1] = target: T1, BD-BP (full-length B…US fused to pGBKT7) (Arabidopsis thaliana) (UniProt P46639); assay: two-hybrid; Matchmaker Gold system, pGBKT7 and pGADT7 constructs co-transformed into yeast strain Gold Y2H; growth on QDO (SD/-Leu/-Trp/-His/-Ade) with X-a-Gal
T1 sequence: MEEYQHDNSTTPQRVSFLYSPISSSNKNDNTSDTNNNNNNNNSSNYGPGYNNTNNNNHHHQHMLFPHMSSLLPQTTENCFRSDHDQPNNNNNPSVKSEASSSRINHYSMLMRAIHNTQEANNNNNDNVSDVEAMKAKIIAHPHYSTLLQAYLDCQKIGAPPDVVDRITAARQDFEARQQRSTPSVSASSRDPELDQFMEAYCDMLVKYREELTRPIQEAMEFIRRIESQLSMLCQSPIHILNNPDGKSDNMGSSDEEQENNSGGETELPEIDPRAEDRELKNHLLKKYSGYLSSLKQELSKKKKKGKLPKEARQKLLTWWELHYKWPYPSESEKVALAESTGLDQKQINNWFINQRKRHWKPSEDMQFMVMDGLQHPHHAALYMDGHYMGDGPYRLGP

[2] = target: T2, BP MEINOX domain (amino acids 130-240), yeast two-hybrid deletion construct (Arabidopsis thaliana) (UniProt P46639); assay: as above
T2 sequence: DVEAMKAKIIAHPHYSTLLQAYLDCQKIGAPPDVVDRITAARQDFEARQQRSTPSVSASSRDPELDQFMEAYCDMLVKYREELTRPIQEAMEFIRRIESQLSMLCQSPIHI

[3] = target: T3, BP full length fused to a YFP fragment (BiFC) (Arabidopsis thaliana) (UniProt P46639); assay: split reporter; BiFC with YN (pUC-pSPYNE) and YC (pUC-pSPYCE) fusions, transient expression in tobacco BY-2 cells by PEG; confocal imaging
T3 sequence: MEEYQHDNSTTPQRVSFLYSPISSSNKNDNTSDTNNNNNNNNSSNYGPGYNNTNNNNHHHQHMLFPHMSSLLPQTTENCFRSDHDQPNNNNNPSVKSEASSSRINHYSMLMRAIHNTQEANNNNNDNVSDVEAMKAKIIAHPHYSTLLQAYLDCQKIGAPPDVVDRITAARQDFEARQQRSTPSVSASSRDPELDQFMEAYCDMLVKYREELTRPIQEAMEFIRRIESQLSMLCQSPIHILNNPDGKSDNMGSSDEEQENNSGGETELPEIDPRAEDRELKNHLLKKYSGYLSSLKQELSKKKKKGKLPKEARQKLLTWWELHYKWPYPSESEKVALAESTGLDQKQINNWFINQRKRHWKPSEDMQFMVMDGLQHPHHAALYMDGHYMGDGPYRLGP

[4] = target: T4, His-BP recombinant protein (Arabidopsis thaliana) (UniProt P46639); assay: pull-down; His-BP bound to His resin in phosphate buffer (10 mM Na2HPO4, 10 mM NaH2PO4, 500 mM NaCl, 10 mM imidazole), 4°C; BRM (689-952aa)-GST or GST added for 2 h; western blot with an anti-His antibody; both purified
T4 sequence: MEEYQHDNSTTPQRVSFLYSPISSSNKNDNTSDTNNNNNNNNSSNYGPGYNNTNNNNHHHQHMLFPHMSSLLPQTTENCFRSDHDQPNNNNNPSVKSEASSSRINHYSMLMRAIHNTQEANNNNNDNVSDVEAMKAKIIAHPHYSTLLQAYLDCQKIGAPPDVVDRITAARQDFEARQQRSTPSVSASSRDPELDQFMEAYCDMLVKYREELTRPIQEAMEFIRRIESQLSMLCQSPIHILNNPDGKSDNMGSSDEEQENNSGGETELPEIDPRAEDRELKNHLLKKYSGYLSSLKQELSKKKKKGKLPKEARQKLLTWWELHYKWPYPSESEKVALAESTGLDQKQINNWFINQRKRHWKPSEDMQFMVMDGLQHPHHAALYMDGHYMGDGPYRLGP

[5] = target: T4, His-BP recombinant protein (Arabidopsis thaliana); assay: native gel or EMSA; purified BP-His and BRM (689-952aa)-GST pre-incubated, then with biotin-labelled KNAT2 or KNAT6 DNA probes, 4°C; 5% polyacrylamide gel, 0.5x TBE; slower shifted bands; both purified
[6] = target: T5, BP-GFP (full length BP fused with a GFP tag) (Arabidopsis thaliana) (UniProt P46639); assay: co-IP; BP-GFP and BRM-Δ-FLAG co-expressed in N. benthamiana leaves; extract (50 mM Tris-HCl pH 7.4, 150 mM NaCl, 2 mM MgCl2, 1 mM DTT, 20% glycerol, 1% NP-40) on GFP-Trap A beads, 4°C, 4 h; blot with anti-Flag
T5 sequence: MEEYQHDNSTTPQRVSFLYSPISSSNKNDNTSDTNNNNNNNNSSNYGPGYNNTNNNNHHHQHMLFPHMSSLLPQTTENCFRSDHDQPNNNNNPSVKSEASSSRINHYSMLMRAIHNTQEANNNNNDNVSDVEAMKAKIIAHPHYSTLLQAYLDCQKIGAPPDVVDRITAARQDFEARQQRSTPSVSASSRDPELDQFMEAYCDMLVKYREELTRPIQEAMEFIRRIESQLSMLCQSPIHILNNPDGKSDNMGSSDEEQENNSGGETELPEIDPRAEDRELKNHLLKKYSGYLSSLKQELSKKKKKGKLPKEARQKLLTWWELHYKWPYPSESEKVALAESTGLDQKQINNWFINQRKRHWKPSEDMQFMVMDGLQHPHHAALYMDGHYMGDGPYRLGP

AD-BRM (full-length BRAHMA fused to pGAKT7) (from UniProt Q6EVK6 1-2193)
binding [1]: binds | binding [2]: binds

BRM full length fused to a YFP fragment (BiFC) (from UniProt Q6EVK6 1-2193)
binding [3]: binds

B1: BRM DII domain (amino acids 689-952), yeast two-hybrid deletion construct (domain or fragment, UniProt Q6EVK6 689-952)
chain: ICEEGAEFLSKKRTDSLKKINGLLAKNLERKRIRPDLVLRLQIEEKKLRLSDLQSRVREEVDRQQQEIMSMPDRPYRKFVRLCERQRLEMNRQVLANQKAVREKQLKTIFQWRKKLLEAHWAIRDARTARNRGVAKYHEKMLREFSKRKDDGRNKRMEALKNNDVERYREMLLEQQTNMPGDAAERYAVLSSFLTQTEDYLHKLGGKITATKNQQEVEEAANAAAVAARLQGLSEEEVRAAATCAREEVVIRNRFTEMNAPKEN
binding [1]: binds

B2: BRM (689-952aa)-GST (domain or fragment, UniProt Q6EVK6 689-952)
chain: ICEEGAEFLSKKRTDSLKKINGLLAKNLERKRIRPDLVLRLQIEEKKLRLSDLQSRVREEVDRQQQEIMSMPDRPYRKFVRLCERQRLEMNRQVLANQKAVREKQLKTIFQWRKKLLEAHWAIRDARTARNRGVAKYHEKMLREFSKRKDDGRNKRMEALKNNDVERYREMLLEQQTNMPGDAAERYAVLSSFLTQTEDYLHKLGGKITATKNQQEVEEAANAAAVAARLQGLSEEEVRAAATCAREEVVIRNRFTEMNAPKEN
binding [4]: binds | binding [5]: binds

B3: BRM-Δ-FLAG (DII domain, amino acids 689-952, of BRM fused with three FLAG tags) (domain or fragment, UniProt Q6EVK6 689-952)
chain: ICEEGAEFLSKKRTDSLKKINGLLAKNLERKRIRPDLVLRLQIEEKKLRLSDLQSRVREEVDRQQQEIMSMPDRPYRKFVRLCERQRLEMNRQVLANQKAVREKQLKTIFQWRKKLLEAHWAIRDARTARNRGVAKYHEKMLREFSKRKDDGRNKRMEALKNNDVERYREMLLEQQTNMPGDAAERYAVLSSFLTQTEDYLHKLGGKITATKNQQEVEEAANAAAVAARLQGLSEEEVRAAATCAREEVVIRNRFTEMNAPKEN
binding [6]: binds
